Reference: paper PMC3562186
These are yes or no findings as the source states them, for the method shown. Binding seen in cells or lysates may run through a third protein. Some results given as binding are weak or reduced against the parent protein; the word gives no strength.

Target: T1, constitutive 20S proteolytic subunit β5 (mouse (endogenous in MIN6)) (UniProt O55234)
T1 sequence: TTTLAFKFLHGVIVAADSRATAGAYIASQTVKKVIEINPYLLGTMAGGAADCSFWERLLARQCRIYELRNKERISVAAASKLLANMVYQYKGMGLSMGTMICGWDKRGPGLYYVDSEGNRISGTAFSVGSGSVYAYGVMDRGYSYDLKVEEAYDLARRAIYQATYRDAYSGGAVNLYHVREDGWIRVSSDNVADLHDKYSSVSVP
Test: co-IP; MIN6 whole cell extract (extraction buffer with 200 mM KCl, 2 mM ATP, 0.5% Triton X-100), cells untreated or treated 24 hours with 150 units/ml IFNβ; 70 μg extract with 50 μg rabbit IgG to β5 C-terminal peptide, β5i C-terminal peptide or β5i middle part, or pre-immune control IgG, and Protein A beads, 1 hour at 4°C, washed with TBST; Western blot

B1: inducible (immune) 20S proteolytic subunit β5i (protein, UniProt P28063 73-276)
chain: TTTLAFKFQHGVIVAVDSRATAGSYISSLRMNKVIEINPYLLGTMSGCAADCQYWERLLAKECRLYYLRNGERISVSAASKLLSNMMLQYRGMGLSMGSMICGWDKKGPGLYYVDDNGTRLSGQMFSTGSGNTYAYGVMDSGYRQDLSPEEAYDLGRRAIAYATHRDNYSGGVVNMYHMKEDGWVKVESSDVSDLLYKYGEAAL
With B1 the binding was “binds”.
